For one molecule, binding results are on record in PMC9321382.

Protein sequences, listed by entry. Tags and fused reporters are not part of them.
UniProt Q1D6H4: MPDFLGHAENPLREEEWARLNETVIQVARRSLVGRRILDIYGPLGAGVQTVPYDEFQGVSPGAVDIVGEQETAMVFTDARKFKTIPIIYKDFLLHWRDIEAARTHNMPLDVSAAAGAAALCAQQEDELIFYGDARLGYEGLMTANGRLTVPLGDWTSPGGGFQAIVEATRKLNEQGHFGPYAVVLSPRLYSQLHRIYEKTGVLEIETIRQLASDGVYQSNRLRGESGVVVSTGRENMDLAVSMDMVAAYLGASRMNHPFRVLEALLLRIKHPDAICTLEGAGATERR

The target in this test is Myxococcus xanthus encapsulin shell protein (EncA) (Myxococcus xanthus) (UniProt Q1D6H4). The experiment in a line: SEC; co-expressed and co-purified EncAC complex on a Sephacryl S-500 column in 200 mM MOPS buffer, pH 7.0, 200 mM NaCl, native conditions; compared with EncA and EncC alone.

These are yes or no findings as the source states them, for the method shown. Some binding calls cover weakened binding; strength is not graded here.

B1: Myxococcus xanthus ferritin-like cargo protein EncC (protein, UniProt Q1D3Y8 1-130)
chain: MPQTNPFHSLVPRKMTDTELARSIRLNIEAELDAINLYAAHIDATDNEDAKAILQHVMDEEREHAALFWELIARLDPEQAAHAKEAVEKYRLITSGASHEAVEAVGKEGAAPSPADVTPEKRLTVGSLRR
Turning to B1, the binding result is reported as “binds”.
